Results published in patent publication US11873486B2, “Modulating dsRNA editing, sensing, and metabolism to increase tumor immunity and improve the efficacy of cancer immunotherapy and/or modulators of intratumoral interferon” (Dana-Farber Cancer Institute, Inc., priority 2017, dated 2024).
At least one compound was matched to its structure with a doubt left.

Test system: ADAR1 knockout A549 cells
Assay: Viability of ADAR1 knockout A549 cells with interferon or drug treatment
Assay type: cell-based, human
Description: For drug treatment assays, cells were plated at a density of 3000 cells per well in a 96-well assay plate. The following day, cells were treated with ruxolitinib (INCB018424) from Selleck Chemicals; MRT67307 hydrocloride (SML0702) from Sigma-Aldrich; human interferon-alphal (#8927) from Cell Signaling; recombinant human IFN-beta 1a (mammalian) protein (114151) and recombinant human IFN-gamma protein (285-IF-100) from R&D Systems. For preincubation drug treatment experiments, cells were plated in the presence of ruxolitinib and were treated with interferon-0 and ruxolitinib the following day. Control wells were treated with dimethylsulfoxide (DMSO). Cell viability was assayed 3 or 6 days after drug treatment with CellTiter-Glo® Luminescent Cell Viability Assay kit (Promega). Viability was normalized to DMSO controls.
for interferon treatment assays, cells were plated at a low density of 3000 cells per well in a 96-well assay plate. The following day, cells were treated with human interferon-alpha 1 (Cell Signaling, #8927) or recombinant human IFN-beta 1a (mammalian) protein (PBL Assay Science, 114151). Control wells were treated with water. Cell viability was assayed 3 or 6 days after drug treatment with CellTiter-Glo© Luminescent Cell Viability Assay kit (Promega). Viability was normalized to controls. […]

N#CC[C@H](C1CCCC1)n1cc(-c2ncnc3[nH]ccc23)cn1 [Ruxolitinib, ruxolitinib]
rescue of lethality to IFN-β treatment: partially rescued lethality to IFN-β treatment
